Percent effect of library compounds

From ChEMBL document CHEMBL3988442, “University of Dundee, Small-Polar-MMV Screening Library” (2021).

Mtb cholesterol medium: 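Growth of Mycobacterium tuberculosis over 4 days (cholesterol / DPPC medium with tyloxapol); the read-out is not stated. Tested at 50 µM. Direction is inferred from retests: higher values go with more growth inhibition. Of about 69,000 compounds tested this way, about 370 (0.54%) reached 50% or more in at least one test.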
Mtb glucose medium: 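Whole-cell growth test on Mycobacterium tuberculosis, read after 3 days in glucose-containing 7H9 medium; the read-out is not stated. Tested at 50 µM. Higher reads as more growth inhibition (inferred: compounds with an IC50 in retests scored well above the rest). Size under these conditions: about 69,000 compounds, about 760 of them at 50% or above in at least one test.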

The filed quantity is “Percent Effect” (%). The controls that fix the scale are not given in the record; negative values are as filed. Compounds were drawn at random from those tested, without regard to their results. Two or more numbers in one place are separate tests of the same structure; such repeats can differ widely.

compound	Mtb cholesterol medium	Mtb glucose medium
Cc1ccsc1S(=O)(=O)N1CCc2c(c(C(=O)O)nn2CC2CC2)C1	-7.84% & -8.293%	-12.61%
CCc1nnsc1C(=O)NC1CCN(CCOc2ccc(Br)cc2)CC1	11.49%	0.8058%
NC(=O)CN1CCC2(CC1)C[C@@H](O)[C@H](c1ccccc1)NC2=O	-19.24%	-35.72%
O=C(C1SCCc2ccccc21)N1CCC(O)CC1 (centres unmarked)	-19.54%	36.4% & 6.74%
COCCN1CCN(Cc2ccco2)Cc2ccc(C)nc21.O=C(O)C(F)(F)F.O=C(O)C(F)(F)F	11.71%	-7.064% & -3.667%
CN1CCC(NC(=O)Nc2ccc(F)c(Br)c2)C1=O (centres unmarked)	4.842%	26.2%
Cc1nc(NCc2ccc(F)cc2)cc(C(=O)N2CCOCC2)n1	-13.95%	18.88%
c1cnnc(N2CCCC2CNCc2nc(-c3ccco3)no2)c1 (centres unmarked)	-17.24%	-5.356%
c1ccc(CCN2CCCC(c3noc(C4CC4)n3)C2)cc1 (centres unmarked)	-10.72% & 0.05715%	-46.86%
O=C(Cc1ccc2c(c1)CCCC2)Nc1cccnc1N1CCSCC1	82.11%	84.21%
[H][C@]12CCN(C(=O)NC)CC[C@@]1([H])S(=O)(=O)N(CCc1cccc(OC)c1)C2	17.81%	-1.691% & 26.95%
O=C(c1cccc(F)c1Cl)N(CCO)CC1CC1	1.844%	1.508%
COc1ccnc(NCC2CN(C3CC3)CCO2)n1 (centres unmarked)	-7.679%	29.69%
CC(C)(C)C(=O)NCc1nccn1CCc1ccccc1	1.995%	17.69%
Cc1nn(CC(=O)NCC2(C(N)=O)CCOCC2)c(C)c1Cl	-10.28%	-7.298%
Cc1cc(N2CCC(O)CC2)nc(C2CCCN2C)n1 (centres unmarked)	-16.31% & 0.4759%	-14.32%
Cl.Cl.c1cc(COC[C@@H]2CCC[C@@]23CNCCO3)ccn1	-30.59%	-27.64%
O=C1CC2(CCN(CC3CCOC3)CC2)CN1Cc1cc(F)cc(F)c1 (centres unmarked)	-12.46%	6.171% & -5.682%
CCOC(=O)c1sc(NC(=O)COC)c(C#N)c1C	-36.71%	-30.93%
Cc1ccc(CN(CCCN2CCOCC2)Cc2cncn2C)o1.O=C(O)CC(O)(CC(=O)O)C(=O)O	-1.773%	23.3%
CCc1nc(CN(C(C)=O)C2CCN(Cc3cnc(C)cn3)C2)no1 (centres unmarked)	-13.09%	-16.61%
[H][C@@]12CCN(c3cc(OC)ncn3)C[C@]1(COc1nccc(C)n1)CCO2	-4.726%	12.43%
CCc1ccc2nc(NCCCN(CCO)CCO)cc(C)c2c1	19.03% & 1.53%	55.29%
Cc1ccc(C)c(NC(=O)N2CCC3(CC2)NC(=O)CC3C(=O)O)c1 (centres unmarked)	2.775% & -2.609%	34.07%
COc1c(CNC2CCN(C(=O)C(C)C)CC2)c(C(C)C)nn1C	-6.596%	-22.54%
CCSc1cncc(N2CCC(C(=O)NC(C)C(C)C)CC2)n1 (centres unmarked)	13.57%	23.42%
COCc1nc2cc(NCc3csc(C)n3)ccc2o1	5.043%	7.262% & -0.7952%
COc1cccc(CSc2nnc(C)n2CC(N)=O)c1	-21.16%	-16.41%
CN1CCCC1c1cc2cccnc2n1Cc1ccc(F)cc1.Cl (centres unmarked)	49.1% & 11.86%	-17.5%
O=C(NCCCN1CCOCC1)C(OC1CCCC1)c1ccccc1 (centres unmarked)	-10.36%	-6.93%
CCN(CC)c1ncc(CNC2CCc3nc(C(C)C)nn3C2)s1 (centres unmarked)	3.041%	19.84%
O=C(O)c1ccc(F)c(S(=O)(=O)Nc2ccc(-n3cccn3)c(Cl)c2)c1	-0.5214%	15.88%
CC(=O)N1CCCCC1c1nc(C)cc(-c2ccccc2C(=O)O)n1 (centres unmarked)	-22.02%	-20.42%
CCS(=O)(=O)N1CCc2c(cccc2NCc2nc(C)c(C)o2)C1	-20.03%	-3.756% & -2.67%
NC(=O)c1cc(NC(=O)N2CCOCC2)ccc1F	-0.1182%	17.92%
Cn1cnc2cc(C(=O)NS(=O)(=O)CC3CCCC3)ccc21	-8.449%	8.77%
COc1ccc(C)cc1NC(=O)Cn1nc(C)c(C#N)c1N	1.361% & -7.21%	1.437% & 5.724%
CN(CC(N)=O)CC(=O)N1CC=C(c2ccccc2)CC1	-19.08%	-5.614%
CC(=O)N1CCN(C(=O)c2sccc2Br)CC1	14.76%	-9.691% & -6.584%
CN(Cc1nnc2ccccn12)C(=O)CCC1CCCC1	-12.1%	-4.745%
CC(NC(=O)COc1cccc[n+]1[O-])C1CC1 (centres unmarked)	1.644%	-1.696%
CN(Cc1cc2n(n1)CCN(C(=O)c1cccnc1)C2)Cc1nccs1	2.361%	-5.123% & -15.32%
CN(Cc1ccncc1)C(=O)NC1CCCN(c2ncccn2)C1 (centres unmarked)	-0.8624%	-1.943%
CCN(CC)Cc1nnc2sc(-c3cc(C(C)C)[nH]n3)nn12	18.98%	11.91%
Cc1c(CN2CCCC(c3[nH]ncc3S(C)(=O)=O)C2)cnn1C (centres unmarked)	-5.994%	12.37%
Cc1nc(C)c(C(=O)N2CCCc3c(F)ccc(F)c32)o1	7.3%	-15.78% & 5.147%
CN(c1ccc(-c2nc(C3CC3)no2)cn1)C1CCOCC1	1.878% & 21.1%	24.04%
CNC(=O)c1cccnc1N1CCN(C/C=C/c2ccccc2)CC1	5.124%	-12.96% & 5.568%
Cn1c(=O)c2sccc2n(Cc2ccccc2)c1=O	12.87%	17.59%
Clc1ccc(CN2CCCC2Cn2cncn2)c2ncccc12 (centres unmarked)	7.053%	-5.26%
[H][C@]12CC[C@]([H])(CN(Cc3cccnc3)C1)N(C(=O)c1ccncc1F)C2	-16.52%	-30.47%
O=C(O)[C@@H]1CN(C(=O)CSCC2CC2)C[C@H]1c1ccncc1	-14.64% & -8.274%	-9.233%
COCC(O)CN(C)C(=O)NCc1ccc(-c2ccn[nH]2)cc1 (centres unmarked)	-11.59%	-14.96%
CCOc1cccc(CCNC(=O)Cc2ccn[nH]2)n1	-10.95%	-52.05%
COCCc1noc(CN(C)c2nccc(C)n2)n1	-7.312%	-1.01%
CN1C(=O)CCC12CCCN(Cc1nccs1)C2.O=C(O)C(F)(F)F (centres unmarked)	-31.13% & -0.3132%	-7.835%
CC(C)Cc1ncc2c(n1)CN(C(=O)c1ccc(Cn3ccnc3)o1)C2	-20.01% & 0.5502%	-30.11%
Cc1cccc(C(=O)NC2CCN(c3cnn(C)c3)C2=O)c1C (centres unmarked)	7.836%	-1.981% & 4.732%

Repeated from the top, 5 entries:

| compound | Mtb cholesterol medium | Mtb glucose medium |
|---|---|---|
| `Cc1ccsc1S(=O)(=O)N1CCc2c(c(C(=O)O)nn2CC2CC2)C1` | -7.84% & -8.293% | -12.61% |
| `CCc1nnsc1C(=O)NC1CCN(CCOc2ccc(Br)cc2)CC1` | 11.49% | 0.8058% |
| `NC(=O)CN1CCC2(CC1)C[C@@H](O)[C@H](c1ccccc1)NC2=O` | -19.24% | -35.72% |
| `O=C(C1SCCc2ccccc21)N1CCC(O)CC1` (centres unmarked) | -19.54% | 36.4% & 6.74% |
| `COCCN1CCN(Cc2ccco2)Cc2ccc(C)nc21.O=C(O)C(F)(F)F.O=C(O)C(F)(F)F` | 11.71% | -7.064% & -3.667% |